According to the supplement of paper PMC12873370:
Where “and” joins values, the source holds several entries; their conditions need not be identical. Equal entries are not always repeated. The list shows a part of the results. Repeats are few or missing, and single values can be far off.

Key:
[1] = system: MEPP (mouse ovarian epithelium Trp53/Pten KO); assay: cell viability relative to untreated (fraction); higher = less growth inhibition; conditions: 5 µM; 3 days
[2] = system: PREPP (mouse prostate epithelium Trp53/Pten KO); assay: as above; conditions: 5 µM; 3 days

SMILES | cell viability [1] | cell viability [2]
CO/N=C(\C(=O)N[C@@H]1C(=O)N2C(C(=O)O)=C(Cn3ccc(=N)n3CCO)CS[C@H]12)c1csc(N)n1 | 1.15 | 0.95
C[C@H](CCC(=O)O)[C@H]1CC[C@H]2[C@@H]3[C@H](O)C[C@@H]4C[C@H](O)CC[C@]4(C)[C@H]3CC[C@]12C | 1.18 | 0.922
CN(C)c1cc(NC(=O)CNC(C)(C)C)c(O)c2c1C[C@H]1C[C@H]3[C@H](N(C)C)C(O)=C(C(N)=O)C(=O)[C@@]3(O)C(O)=C1C2=O | 0.987 | 0.88
CCC(C)(C)c1ccc(CC(C)CN2C[C@@H](C)O[C@@H](C)C2)cc1 (some centres not stated) | 0.982 | 0.852
NC(=O)NCCC[C@H](N)C(=O)O | 1.08 | 0.87
Cc1coc2c1C(=O)C(=O)c1c-2ccc2c(C)cccc12 | 0.998 | 0.414
OC[C@H]1O[C@H](O[C@H]2O[C@H](CO)[C@@H](O)[C@H](O)[C@H]2O)[C@H](O)[C@@H](O)[C@@H]1O | 0.889 and 0.92 | 1.01 and 0.614
CC[C@@]1(O)C(=O)OCc2c1cc1n(c2=O)Cc2cc3c(CN(C)C)c(O)ccc3nc2-1 | 0.516 | 0.828
Nc1nc2[nH]cc(CCc3ccc(C(=O)N[C@@H](CCC(=O)O)C(=O)O)cc3)c2c(=O)[nH]1 | 0.833 | 0.64
C=C(C)[C@@H]1CC[C@]2(C(=O)O)CC[C@]3(C)[C@H](CC[C@@H]4[C@@]5(C)CC[C@H](O)C(C)(C)[C@@H]5CC[C@]43C)[C@@H]12 | 1.07 | 0.862
C[C@H]1[C@H](C)CC[C@]2(C(=O)O[C@@H]3O[C@H](CO[C@@H]4O[C@H](CO)[C@@H](O[C@@H]5O[C@H](C)[C@H](O)[C@@H](O)[C@H]5O)[C@H](O)[C@H]4O)[C@@H](O)[C@H](O)[C@H]3O)CC[C@]3(C)C(=CC[C@@H]4[C@@]5(C)C[C@@H](O)[C@H](O)[C@@](C)(CO)[C@@H]5CC[C@]43C)[C@H]12 | 2.23 | 0.883
